The target in one assay is T1, GST-MCM10 (human) (UniProt Q7L590).
T1 sequence: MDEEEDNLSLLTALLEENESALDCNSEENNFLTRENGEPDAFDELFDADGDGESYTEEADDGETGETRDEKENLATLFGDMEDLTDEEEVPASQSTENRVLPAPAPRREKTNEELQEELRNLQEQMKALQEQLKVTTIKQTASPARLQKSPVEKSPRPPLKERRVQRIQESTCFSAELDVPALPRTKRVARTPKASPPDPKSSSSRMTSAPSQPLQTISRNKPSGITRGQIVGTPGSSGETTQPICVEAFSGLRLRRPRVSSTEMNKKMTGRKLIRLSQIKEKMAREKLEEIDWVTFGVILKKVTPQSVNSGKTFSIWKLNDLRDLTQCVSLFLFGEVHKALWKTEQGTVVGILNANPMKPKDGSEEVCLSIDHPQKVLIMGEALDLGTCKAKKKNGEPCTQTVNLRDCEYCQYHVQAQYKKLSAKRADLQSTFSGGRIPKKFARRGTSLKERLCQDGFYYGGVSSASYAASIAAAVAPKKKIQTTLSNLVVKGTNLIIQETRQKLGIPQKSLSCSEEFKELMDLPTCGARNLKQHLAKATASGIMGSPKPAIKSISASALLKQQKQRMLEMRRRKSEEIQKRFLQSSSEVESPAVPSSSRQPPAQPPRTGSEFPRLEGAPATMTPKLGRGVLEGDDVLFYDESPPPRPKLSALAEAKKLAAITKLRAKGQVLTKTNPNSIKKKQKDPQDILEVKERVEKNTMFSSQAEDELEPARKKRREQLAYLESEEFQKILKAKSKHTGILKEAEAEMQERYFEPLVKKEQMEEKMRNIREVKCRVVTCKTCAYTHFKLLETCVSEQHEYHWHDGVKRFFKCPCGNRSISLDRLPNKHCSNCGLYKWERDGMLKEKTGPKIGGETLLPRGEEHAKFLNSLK
The experiment in a line: pull-down; GST or GST-MCM10 on GSH beads (about 1 μg) incubated with purified HIS-RECQ4 (about 1 μg) or purified MBP-RECQ4-HIS fragments in YFP pull-down buffer, 1 h at 4°C; immunoblot for RECQ4; both purified.

By UniProt entry, the sequences of proteins in these tests, tags left out. Where a name states a change or a piece, a line headed by the entry shows the natural chain unless it says otherwise.
UniProt O94761: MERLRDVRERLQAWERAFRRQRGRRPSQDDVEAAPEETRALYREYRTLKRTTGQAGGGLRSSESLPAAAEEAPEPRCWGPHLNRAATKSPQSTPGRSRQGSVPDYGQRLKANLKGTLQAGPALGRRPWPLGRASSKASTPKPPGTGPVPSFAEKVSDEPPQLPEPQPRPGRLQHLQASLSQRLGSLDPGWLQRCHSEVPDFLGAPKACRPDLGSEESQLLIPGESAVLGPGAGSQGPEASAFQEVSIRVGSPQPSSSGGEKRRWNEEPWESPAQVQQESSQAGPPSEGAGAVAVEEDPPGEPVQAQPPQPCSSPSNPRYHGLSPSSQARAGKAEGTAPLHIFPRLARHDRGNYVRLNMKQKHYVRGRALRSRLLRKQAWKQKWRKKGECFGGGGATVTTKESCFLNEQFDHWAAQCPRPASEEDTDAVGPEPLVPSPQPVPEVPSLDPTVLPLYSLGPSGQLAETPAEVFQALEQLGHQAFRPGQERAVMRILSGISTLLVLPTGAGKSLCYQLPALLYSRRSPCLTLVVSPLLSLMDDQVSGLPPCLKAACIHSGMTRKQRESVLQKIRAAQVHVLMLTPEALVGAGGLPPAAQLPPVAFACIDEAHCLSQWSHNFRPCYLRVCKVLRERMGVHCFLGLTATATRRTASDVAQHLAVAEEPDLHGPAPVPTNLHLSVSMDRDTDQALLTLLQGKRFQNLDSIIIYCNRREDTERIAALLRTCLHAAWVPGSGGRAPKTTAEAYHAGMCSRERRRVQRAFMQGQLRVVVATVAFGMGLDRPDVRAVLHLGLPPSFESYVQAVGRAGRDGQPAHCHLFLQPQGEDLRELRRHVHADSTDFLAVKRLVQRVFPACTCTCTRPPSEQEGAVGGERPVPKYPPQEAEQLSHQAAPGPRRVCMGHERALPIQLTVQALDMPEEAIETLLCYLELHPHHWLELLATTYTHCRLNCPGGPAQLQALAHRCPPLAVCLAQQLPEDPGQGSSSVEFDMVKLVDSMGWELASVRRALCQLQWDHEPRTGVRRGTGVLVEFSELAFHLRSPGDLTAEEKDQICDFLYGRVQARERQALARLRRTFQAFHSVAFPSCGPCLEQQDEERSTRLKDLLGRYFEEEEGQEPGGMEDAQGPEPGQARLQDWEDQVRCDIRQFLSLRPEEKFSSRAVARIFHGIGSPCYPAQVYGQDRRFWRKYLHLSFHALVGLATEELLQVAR
UniProt Q7Z2Z1: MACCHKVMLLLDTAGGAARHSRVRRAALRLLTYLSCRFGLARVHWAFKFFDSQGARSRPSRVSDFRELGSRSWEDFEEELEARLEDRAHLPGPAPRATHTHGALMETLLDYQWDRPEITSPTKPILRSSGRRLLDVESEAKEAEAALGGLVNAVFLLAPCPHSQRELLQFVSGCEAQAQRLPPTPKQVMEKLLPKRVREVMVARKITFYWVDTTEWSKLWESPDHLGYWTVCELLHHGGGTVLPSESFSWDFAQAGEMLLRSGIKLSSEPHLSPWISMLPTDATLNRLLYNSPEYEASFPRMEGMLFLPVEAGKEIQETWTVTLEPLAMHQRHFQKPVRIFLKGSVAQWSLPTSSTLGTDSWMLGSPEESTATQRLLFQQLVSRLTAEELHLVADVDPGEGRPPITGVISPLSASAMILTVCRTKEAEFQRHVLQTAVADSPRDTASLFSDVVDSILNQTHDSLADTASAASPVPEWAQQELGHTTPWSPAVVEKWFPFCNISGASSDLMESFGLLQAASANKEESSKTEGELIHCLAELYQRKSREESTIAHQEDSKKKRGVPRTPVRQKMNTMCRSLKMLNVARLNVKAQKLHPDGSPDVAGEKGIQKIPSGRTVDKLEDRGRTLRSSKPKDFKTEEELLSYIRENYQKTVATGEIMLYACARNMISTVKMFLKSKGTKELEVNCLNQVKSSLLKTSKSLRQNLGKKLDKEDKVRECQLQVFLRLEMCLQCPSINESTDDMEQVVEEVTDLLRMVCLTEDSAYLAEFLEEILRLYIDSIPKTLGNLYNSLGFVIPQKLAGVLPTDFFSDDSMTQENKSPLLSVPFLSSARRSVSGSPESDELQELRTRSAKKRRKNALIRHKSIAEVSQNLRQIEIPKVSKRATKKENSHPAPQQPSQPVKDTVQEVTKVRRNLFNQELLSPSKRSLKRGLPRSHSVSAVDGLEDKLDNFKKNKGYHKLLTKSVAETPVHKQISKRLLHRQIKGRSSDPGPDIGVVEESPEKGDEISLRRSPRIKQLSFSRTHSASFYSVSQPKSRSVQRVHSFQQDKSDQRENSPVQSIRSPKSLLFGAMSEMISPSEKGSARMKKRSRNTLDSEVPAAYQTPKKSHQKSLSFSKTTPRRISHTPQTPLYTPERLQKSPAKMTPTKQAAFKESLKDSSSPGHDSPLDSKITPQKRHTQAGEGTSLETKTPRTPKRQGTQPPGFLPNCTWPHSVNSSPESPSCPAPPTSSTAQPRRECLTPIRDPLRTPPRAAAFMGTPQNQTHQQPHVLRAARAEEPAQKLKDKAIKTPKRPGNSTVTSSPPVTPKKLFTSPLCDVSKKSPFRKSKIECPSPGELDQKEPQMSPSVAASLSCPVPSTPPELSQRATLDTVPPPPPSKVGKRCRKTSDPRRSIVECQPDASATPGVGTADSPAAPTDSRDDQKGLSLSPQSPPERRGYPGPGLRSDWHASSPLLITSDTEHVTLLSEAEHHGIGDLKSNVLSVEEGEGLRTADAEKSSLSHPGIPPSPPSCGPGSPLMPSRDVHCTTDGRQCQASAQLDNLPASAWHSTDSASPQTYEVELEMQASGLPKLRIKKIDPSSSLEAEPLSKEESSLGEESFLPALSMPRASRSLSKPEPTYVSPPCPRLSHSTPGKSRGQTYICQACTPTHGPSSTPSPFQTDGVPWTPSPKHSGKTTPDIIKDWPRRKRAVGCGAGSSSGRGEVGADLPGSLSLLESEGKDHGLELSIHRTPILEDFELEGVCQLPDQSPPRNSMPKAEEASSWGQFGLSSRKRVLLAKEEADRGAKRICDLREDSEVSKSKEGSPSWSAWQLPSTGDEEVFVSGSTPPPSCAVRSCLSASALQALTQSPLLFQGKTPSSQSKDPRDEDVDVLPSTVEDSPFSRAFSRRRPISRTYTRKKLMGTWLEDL

The next assay deals with YFP-RECQ4-ΔID1 (human) (UniProt O94761). Put plainly: co-IP; YFP proteins precipitated with GFP-Trap beads from lysates of transiently transfected U2OS cells (asynchronous, hydroxyurea-arrested, HU-released or nocodazole-arrested); pull-down buffer 10 mM Tris pH 7.5, 200 mM KCl, 10% glycerol, 2 mM MgCl2, 0.5 mM DTT, 0.5% NP-40, benzonase; 2 h at 4°C; immunoblot. Background: In western blotting, separated proteins are transferred to a membrane and probed.

A further assay addresses YFP-RECQ4-ΔFL (human) (UniProt O94761). The description is as above.

No constants are given. Whether binding was seen depends on the method and setting. For part of these data: Binding seen in cells or lysates may run through a third protein. For part of these data: A result given as binding can be weak or reduced; the word gives no strength. For part of these data: Sequences can lack the tags named with a protein.

In the case of “MBP-RECQ4 1-400-HIS with the ΔFL deletion (from UniProt O94761) (domain or fragment)”, the binding entry in the assay with GST-MCM10 (human) is “no binding”. As for “TRESLIN (endogenous, U2OS) (from UniProt Q7Z2Z1 1-1910)”, the binding entry with YFP-RECQ4-ΔID1 (human) and in the assay with YFP-RECQ4-ΔFL (human) was “binds” throughout.
